Where two headings read alike, the source gives them in different places. Results are given in words; binding and its absence hold for the method and conditions named. For some assays here: Binding seen in cells or lysates may run through a third protein. Some entries that bind do so weakly or less than the wild type. Where a sequence is shown, tags or fusion partners need not be part of it. Each block holds one molecule with its values, some of them ahead of it.
Legend:
[1] = molecular target: T1, GST-Tls1 (S. pombe) (UniProt Q10148); test: pull-down
T1 sequence: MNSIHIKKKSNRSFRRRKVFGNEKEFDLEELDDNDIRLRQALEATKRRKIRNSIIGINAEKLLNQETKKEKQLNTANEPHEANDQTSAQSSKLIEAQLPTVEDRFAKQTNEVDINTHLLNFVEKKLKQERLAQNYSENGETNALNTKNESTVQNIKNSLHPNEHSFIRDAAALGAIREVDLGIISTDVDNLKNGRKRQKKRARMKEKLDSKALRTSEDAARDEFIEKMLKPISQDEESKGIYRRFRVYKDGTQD

The chains behind the UniProt entries cited, without tags or fusion partners.
UniProt Q9UT24: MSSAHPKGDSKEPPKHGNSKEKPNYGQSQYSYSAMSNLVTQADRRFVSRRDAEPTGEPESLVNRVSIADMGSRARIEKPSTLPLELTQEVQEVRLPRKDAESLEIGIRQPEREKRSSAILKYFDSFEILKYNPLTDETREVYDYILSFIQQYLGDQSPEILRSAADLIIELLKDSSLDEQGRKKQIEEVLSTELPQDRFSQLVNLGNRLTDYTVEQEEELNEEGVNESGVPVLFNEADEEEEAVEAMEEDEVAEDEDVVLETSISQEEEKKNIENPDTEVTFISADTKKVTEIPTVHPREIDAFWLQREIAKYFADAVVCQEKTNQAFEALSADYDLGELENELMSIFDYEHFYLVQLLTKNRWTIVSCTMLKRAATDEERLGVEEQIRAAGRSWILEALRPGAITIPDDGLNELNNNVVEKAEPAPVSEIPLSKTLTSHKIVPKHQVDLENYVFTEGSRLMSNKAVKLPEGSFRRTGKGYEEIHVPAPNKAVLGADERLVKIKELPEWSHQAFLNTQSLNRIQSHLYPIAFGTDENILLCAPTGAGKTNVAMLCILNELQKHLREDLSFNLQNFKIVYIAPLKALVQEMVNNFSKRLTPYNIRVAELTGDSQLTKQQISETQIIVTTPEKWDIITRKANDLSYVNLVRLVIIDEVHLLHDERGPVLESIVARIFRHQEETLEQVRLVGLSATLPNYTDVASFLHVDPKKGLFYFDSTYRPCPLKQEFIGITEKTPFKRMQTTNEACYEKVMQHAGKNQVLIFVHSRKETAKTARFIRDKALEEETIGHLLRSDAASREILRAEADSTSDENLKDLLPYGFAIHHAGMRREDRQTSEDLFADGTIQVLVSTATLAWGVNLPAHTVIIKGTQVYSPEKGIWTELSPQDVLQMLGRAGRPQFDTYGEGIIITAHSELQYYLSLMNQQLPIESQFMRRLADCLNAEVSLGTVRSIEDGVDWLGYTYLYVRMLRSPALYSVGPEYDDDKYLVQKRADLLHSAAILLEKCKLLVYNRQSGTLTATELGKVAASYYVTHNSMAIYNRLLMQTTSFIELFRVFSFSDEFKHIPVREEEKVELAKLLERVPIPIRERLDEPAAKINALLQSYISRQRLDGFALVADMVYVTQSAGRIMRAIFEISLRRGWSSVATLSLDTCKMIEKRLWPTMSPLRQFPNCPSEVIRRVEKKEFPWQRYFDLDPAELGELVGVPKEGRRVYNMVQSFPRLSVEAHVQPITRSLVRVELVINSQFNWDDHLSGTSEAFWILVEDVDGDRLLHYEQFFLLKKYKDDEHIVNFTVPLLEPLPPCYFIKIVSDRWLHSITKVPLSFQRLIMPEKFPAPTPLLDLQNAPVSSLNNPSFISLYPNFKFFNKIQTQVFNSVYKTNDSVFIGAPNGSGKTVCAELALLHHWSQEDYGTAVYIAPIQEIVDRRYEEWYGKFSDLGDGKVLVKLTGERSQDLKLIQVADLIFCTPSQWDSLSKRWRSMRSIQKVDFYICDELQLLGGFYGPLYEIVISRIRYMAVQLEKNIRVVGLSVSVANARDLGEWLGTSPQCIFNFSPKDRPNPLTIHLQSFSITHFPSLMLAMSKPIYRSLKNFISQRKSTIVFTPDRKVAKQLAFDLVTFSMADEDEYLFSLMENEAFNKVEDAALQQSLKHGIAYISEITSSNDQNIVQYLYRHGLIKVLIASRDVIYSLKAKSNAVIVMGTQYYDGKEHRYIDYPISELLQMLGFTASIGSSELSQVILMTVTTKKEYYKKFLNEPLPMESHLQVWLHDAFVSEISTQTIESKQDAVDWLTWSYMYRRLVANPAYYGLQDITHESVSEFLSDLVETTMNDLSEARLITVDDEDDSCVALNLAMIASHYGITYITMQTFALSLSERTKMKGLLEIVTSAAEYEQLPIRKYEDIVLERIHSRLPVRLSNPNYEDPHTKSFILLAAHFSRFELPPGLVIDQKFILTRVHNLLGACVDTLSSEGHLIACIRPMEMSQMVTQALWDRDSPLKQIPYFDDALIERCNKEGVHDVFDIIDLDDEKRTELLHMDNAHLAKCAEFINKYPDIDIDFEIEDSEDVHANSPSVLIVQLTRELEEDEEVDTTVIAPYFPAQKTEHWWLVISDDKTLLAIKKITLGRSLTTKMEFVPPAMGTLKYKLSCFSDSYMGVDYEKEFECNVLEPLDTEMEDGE

[2] = molecular target: Brr2 (entire ORF, yeast two-hybrid fusion) (S. pombe) (UniProt Q9UT24); test: two-hybrid
[3] = molecular target: T1, GST-Tls1 (S. pombe); test: pull-down; remark: listed apart in the source

- binding [3]: no binding
B2: Flag-tagged Rap1 (protein, UniProt Q96TL7 1-693)
chain: MSFTFTKSDGSSILFAVSKNFEHIRGFKNAIDCFKGKIEFLSFDKVDPTKHDYYLVAEDERVSDLDIPKGFFERNPEFRHKMLKIAWITQCIEQGKLLPTESFEVELNQDDVNRTHDGFRKRELFTLEDEKILIDHVHKNDINRFGTKVYEELARKYPQHSLESWRQHYKYMKKRLPPVSDSDESNYCQRIIVKPYSSQKDYTQSTHEQTLSSPISKSASVSKSENKALVNNKRYSDSYFYFSKMRRISIDVDYVDEDLNLINAYLSQFGKKRSLNELCALLSRRFSNRHTFSEWRALFMHFFPFINSEGVDPAILSDRETSAMLDETSDNEVADIDDQMIERKYLFSASEPNTVKSTNRLIFSERKAYAADDSIDNTPSKVPIVNSLSDPRTNRPFFYSNPDSMYRSISNPLHLVDSQHLSPLNRKTHFNNPIGQPQFTCLDDHEKTLRETSFRSLDDMSLRKSNSDNIFVKPGEDLEIPLLSDYSDSENISEKSSDDEEAFEKQVTSSYSSPIKVKSQGKSSKGSSGLDVREHEGSDDDAEVFVDRSPESFGATKVAHTSLEGNAASHKKVEENMQQPVTKKQKKYRMVNEEAHTGPTIIIPSDNNEKVTTLPAGHVPSEEKGKFINLAMHELQNEVSILRSSVNHREVDEAIDNILRYTNSTEQQFLEAMESTGGRVRIAIAKLLSKQTS

- binding [3]: binds weakly
B3: Flag-tagged Prp19 (protein, UniProt O14011 1-488)
chain: MFCSISGETPKEPVISRVSGNVYEKRLIEQVIRETSKDPVTQQECTLEDLVPVKVPDFVRPRPPSATSLPALLSLFQEEWDSVALEQFELRRNLTETKQELSTALYSLDAALRVISRLTKERDEAREALAKFSDNIGTVSSKTIEVQEVEMGESDDQLKTSLRSTVEKTFQELSSKRKRTKLQPKWATDDAVSQLLQATPSTILENLETESTTSFFPSPENSSFVLCLHKDELLCLDIQSNSTLKIFEGSALACCWLTSSKIAVATADAISIFEFPVSSSGLQSVGEPTSSIPIDEKVNFLQAHPSGEYLLAASNEKCYIFSLKSQVYNITVAQHITSLAVHPDGNLFVAGLENGELRFFETSSGNELTKFGPHSSPVKTLQFGENGYWLVVTTNDDSDIFIWDLRKSELVQKIPLQTKVAAVSLDITSQLLVSSDGETLYVHIYVKSSKSWRCMSQTHVSSISNLVWLNELHQLLFSTSNGAILRLG

- binding [2]: binds
B4: Tls1 (entire ORF, yeast two-hybrid fusion) (protein, UniProt Q10148 1-254)
chain: T1 sequence

The remaining lines, values behind:

Molecule: Flag-tagged Brr2 (from UniProt Q9UT24 1-2176)
- binding [1]: binds

B1: Cay1 (entire ORF, yeast two-hybrid fusion) (protein, UniProt O14342 1-517)
chain: MAFRDSTRDFNRSRPEKRHASRSSSPRSFRPSNQNARANYNLPRVRDAMKEEERSRETKEMQEREFLRLQQLRRAIIRLKNDRSKPIDKLLVSVYLMPGPEWEENGEKNSIDFGTVDMFDPLSVIQSYKAEDLEEISRNIGDIQQLETNQCRLTYWKYVKMLVNSRMEHNKVGQFSRGLKVVAGEVQRILAPKSFEQLEQLEAQIQKKLKSNVPLDTDYWVDLLNSLKSYKAIAYLKKTFNEELQIRKNKLDNEEWDKAFSDAKKLSNMKDREEKLYIVPIDPKPILRAQAIPRRIQPEEQADYEKELNDHVNIVKSSTYIPISIPTQKQKPTLPKNSNLINEDEFSIANRARLEREYLQSDDAEEQEMLGDYVEGQTRVVNENGVTLKKPHYFNRVLLGFEWNSYNQAHFNEAHPPPKAVQGYRFNVFYPDLIGTGRAPTYRIERTRRKNKSDTTDLQDDVCIIRFIAGEPYQDIAFSIVDKDWDYSAKRDHGFKSSFDNGVLSLHFRFKKLHHRR
- binding [2]: no binding
